Reference: PubChem BioAssay AID588590 (National Center for Advancing Translational Sciences (NCATS), 2011)
Several values for one entry are separate records, joined by “and”; a condition that tells them apart may be missing. Equal entries are not always repeated. Among all 390,000 compounds or so, about 4,000 (1%) were called active. The inconclusive results got no clear call from the source; some entries with a clear call stand among them for comparison. Calls come from the whole dose curve; as a rule, active = well fitted inhibition curve with a large enough effect; inconclusive = small, poorly fitted or top-dose-only effect, or another doubt; inactive = no such curve, though single readings can be large or run the other way. Potencies of inconclusive entries are doubtful fits and often do not repeat.

Amino acid sequences for entries named in this document (tags omitted). A change or cut given only in a name is not applied to a line headed by its entry.
UniProt Q9UNA4: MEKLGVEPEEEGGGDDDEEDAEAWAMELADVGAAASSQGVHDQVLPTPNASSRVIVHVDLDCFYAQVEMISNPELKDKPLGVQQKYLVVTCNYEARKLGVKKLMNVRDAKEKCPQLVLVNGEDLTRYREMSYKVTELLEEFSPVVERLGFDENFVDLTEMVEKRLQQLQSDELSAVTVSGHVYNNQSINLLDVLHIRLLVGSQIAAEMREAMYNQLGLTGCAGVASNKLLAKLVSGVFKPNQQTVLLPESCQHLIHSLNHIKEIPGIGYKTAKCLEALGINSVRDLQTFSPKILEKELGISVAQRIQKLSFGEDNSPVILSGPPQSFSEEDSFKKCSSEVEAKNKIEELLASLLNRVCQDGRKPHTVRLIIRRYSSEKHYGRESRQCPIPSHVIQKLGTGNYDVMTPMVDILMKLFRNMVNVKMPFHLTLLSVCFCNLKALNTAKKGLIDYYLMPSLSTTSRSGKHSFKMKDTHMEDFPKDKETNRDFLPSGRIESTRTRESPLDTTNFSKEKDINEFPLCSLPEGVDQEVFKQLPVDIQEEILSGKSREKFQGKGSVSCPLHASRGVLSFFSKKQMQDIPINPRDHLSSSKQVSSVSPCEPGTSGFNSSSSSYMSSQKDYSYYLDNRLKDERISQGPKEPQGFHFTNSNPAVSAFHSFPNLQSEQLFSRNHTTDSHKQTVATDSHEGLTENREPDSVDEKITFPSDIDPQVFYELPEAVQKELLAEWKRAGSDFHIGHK

target: DNA polymerase iota (Homo sapiens) (UniProt Q9UNA4); assay: qHTS for Inhibitors of Polymerase Iota; settings: Pol iota fluorescent replication assay, 10 min; series mostly up to 115 µM
In short: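 Pol iota at 10 nM preincubated 15 min with compounds at room temperature; reaction started with fluorescent substrate, 50 nM final. Fluorescence read kinetically at 0 and 10 min; buffer-only wells as negative control.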
Potency is the fitted concentration of half-maximal effect.

| Structure (SMILES) | Potency |
| --- | --- |
| Cn1c(NCc2ccccc2F)nc2ccccc21 | inconclusive: 89.1 µM [inhibitor, single point] |
| COc1cc(/C=C2/C(=O)NN(c3ccc(F)cc3)C2=O)cc(Cl)c1O | inconclusive: 20 µM [inhibitor, single point] |
| CC(NC(=O)c1ccccc1Cl)C1COc2ccccc2O1 (stereo unspecified) | inconclusive: 22.4 µM [inhibitor, single point] |
| CCOC(=O)C1(C(C)(C)CC)CC(CSc2nc3ccccc3[nH]2)OC1=O (stereo unspecified) | inconclusive: 12.6 µM [inhibitor, partial curve] |
| CC(=O)c1cccc(-n2c(CCC(=O)O)ccc2-c2ccccc2)c1 | inconclusive: 5.01 µM [inhibitor, full curve, poor fit] |
| O=C(NCCCN1CCOCC1)c1cc(-c2ccccc2)on1 | inconclusive: 89.1 µM [inhibitor, single point] |
| COC(=O)[C@]1(C)N[C@H](CN(C)C(=O)c2ccc(C(C)(C)C)cc2)[C@@H]2C(=O)N(Cc3ccccc3)C(=O)[C@@H]21 | inconclusive: 50.1 µM [inhibitor, partial curve] |
| S=c1nc(-c2ccccc2)[nH]n1-c1ccccc1 | inconclusive: 89.1 µM [inhibitor, partial curve, poor fit] |
| CCOC(=O)C1CCN(C(=O)c2ccc3c(c2)sc2nc(-c4ccc(OCC)cc4)cn23)CC1 | inconclusive: 89.1 µM [inhibitor, single point] |
| CN1CCS/C1=C\C=C1/SC(=S)N(CC(=O)O)C1=O | inconclusive: 39.8 µM [inhibitor, partial curve, poor fit] |
| COc1ccc(-c2csc3[nH]c(=S)n(-c4ccccc4)c(=O)c23)cc1OC | inconclusive: 12.6 µM [inhibitor, partial curve, poor fit] |
| CCOC(=O)c1c(NC(C)=O)sc2c(OC)cccc12 | inactive |
| Cc1ccc(CN2CCN(/N=C/C=C/c3ccccc3[N+](=O)[O-])CC2)cc1 | inconclusive: 35.5 µM [inhibitor, single point] |
| Cc1cccc(OC(C)C(=O)N2CCC(c3nc4ccccc4o3)CC2)c1C (stereo unspecified) | inactive |
| O=C1c2ccccc2C(=O)c2c(NCCCN(CCO)CCO)cccc21 | inconclusive: 11.2 µM [inhibitor, partial curve, poor fit] |
| Cc1nc2c(-c3ccc(F)cc3)c(C)[nH]n2c(=O)c1Cl | inconclusive: 0.708 µM [inhibitor, full curve, poor fit] |
| N#C/C(=C\c1ccc(OCCN2CCOCC2)cc1)C(=O)Nc1ccc(S(N)(=O)=O)cc1 | inconclusive: 31.6 µM [inhibitor, full curve, poor fit] |
| COc1cccc(CN2c3ccccc3-c3nc(SCC(=O)Nc4cccc(C)c4)ncc3S2(=O)=O)c1 | inconclusive: 89.1 µM [inhibitor, partial curve] |
| COc1ccc2c(c1)c(CC(=O)NCc1cc([N+](=O)[O-])ccc1O)c(C)n2C(=O)c1ccc(Cl)cc1 | inconclusive: 39.8 µM [inhibitor, single point] |
| CC(=O)/C(C#N)=C1\NC(=O)C(Cc2ccc(C)c(C)c2)S1 (stereo unspecified) | inconclusive: 22.4 µM [inhibitor, partial curve] |
| COc1ccc(-n2c(=O)c3c4c(sc3n(Cc3ccccc3)c2=O)CCC4)c(OC)c1 | inactive |

Part of the list above, as tab-separated lines.
Structure (SMILES)	Potency
S=c1nc(-c2ccccc2)[nH]n1-c1ccccc1	inconclusive: 89.1 µM [inhibitor, partial curve, poor fit]
CCOC(=O)C1CCN(C(=O)c2ccc3c(c2)sc2nc(-c4ccc(OCC)cc4)cn23)CC1	inconclusive: 89.1 µM [inhibitor, single point]
CN1CCS/C1=C\C=C1/SC(=S)N(CC(=O)O)C1=O	inconclusive: 39.8 µM [inhibitor, partial curve, poor fit]
COc1ccc(-c2csc3[nH]c(=S)n(-c4ccccc4)c(=O)c23)cc1OC	inconclusive: 12.6 µM [inhibitor, partial curve, poor fit]

Additional entries follow:

| Structure (SMILES) | Potency |
| --- | --- |
| Cc1csc(NC(=O)c2cc(-c3ccco3)nc3ccccc23)n1 | inconclusive: 22.4 µM [inhibitor, full curve, poor fit] |
| CCOC(=O)c1cccc(NC(=O)N2Cc3ccccc3Oc3ncccc32)c1 | inactive |
| COc1ccc2ccccc2c1CN1CCN(Cc2ccccc2)CC1 | inconclusive: 28.2 µM [inhibitor, full curve, poor fit] |
| c1cnc2nc(-c3ccc4c(c3)OCO4)cn2c1 | inactive |
| COc1ccc(-c2nc(C(N)=O)c3[nH]c(=O)n(-c4cccc(C)c4)c3n2)c(OC)c1 | inconclusive: 100 µM [inhibitor, single point] |
| CC(C)n1cnc2c(NCc3ccccc3)cc(N[C@H](C)CO)cc21 | inconclusive: 12.6 µM [inhibitor, full curve, poor fit] |
| CCCN1CN=C(Nc2nc3ccccc3o2)NC1 | inactive |
| CC(=O)Oc1cc(O)c2c(c1)OC(c1ccc(OC(C)=O)c(OC(C)=O)c1)C(OC(C)=O)C2=O (stereo unspecified) | inconclusive: 56.2 µM [inhibitor, partial curve, poor fit] |
| Brc1cnc2nc(SCc3nc4ccccc4[nH]3)[nH]c2c1 | inconclusive: 89.1 µM [inhibitor, single point] |
| COc1cc(/C=C/c2nc3ccccc3c(=O)[nH]2)cc(Br)c1O | inconclusive: 20 µM [inhibitor, partial curve, poor fit] |
| COc1ccc(-c2nc3c(c(SCC(=O)Nc4cc(C)cc(C)c4)n2)Cc2c(CO)cnc(C)c2O3)cc1 | inconclusive: 89.1 µM [inhibitor, single point] |
| C=CC(=O)N=c1sc2ccccc2n1-c1ccccc1 | inconclusive: 31.6 µM [inhibitor, single point] |
| Cc1ccc(CN(Cc2cccn2-c2nnc(N3CCCC3=O)s2)C(=O)Nc2cc(C)cc(C)c2)cc1 | inactive |
| CCn1c(SCC(=O)NCc2ccco2)nnc1-c1ccc(N(C)C)cc1 | inactive |
| CCN(CC)Cc1cc2[nH]c3c4ccc(Cl)cc4ncc3c2cc1OC | inconclusive: 56.2 µM [inhibitor, single point] and inconclusive: 39.8 µM [inhibitor, partial curve, poor fit] |
| CCN(CC)S(=O)(=O)c1ccc(O)c(NC(=O)COc2ccc(S(=O)(=O)N3CCOCC3)cc2)c1 | inactive |
| O=C1c2ccccc2C(=O)N1c1ncn[nH]1 | inconclusive: 39.8 µM [inhibitor, partial curve, poor fit] |
| COc1ccccc1N1CCN(C(=O)CSc2nc(C)c(Cc3ccccc3)c(=O)[nH]2)CC1 | inconclusive: 70.8 µM [inhibitor, partial curve, poor fit] |
| COc1cccc(C2C(C#N)=C(N)OC3=C2C(=O)CC(c2ccco2)C3)c1OCc1ccc(F)cc1 (stereo unspecified) | inconclusive: 7.94 µM [inhibitor, full curve, poor fit] |
| COc1ccc(C(=O)c2cn(Cc3ccc(F)cc3)c3c(F)cc(F)cc3c2=O)cc1 | inconclusive: 4.47 µM [inhibitor, full curve, poor fit] |
| Fc1ccc(-c2nnc(CN3CCN(c4ccccn4)CC3)o2)cc1 | inactive |

| Structure (SMILES) | Potency |
| --- | --- |
| CCOC(=O)c1ccc(S(=O)(=O)NNc2ccc(C(F)(F)F)cn2)cc1 | inconclusive: 39.8 µM [inhibitor, partial curve, poor fit] |
| NC(=O)c1ccc(NC(=O)CCc2nc3sc4c(c3c(=O)[nH]2)CCCC4)cc1 | inconclusive: 39.8 µM [inhibitor, single point] |
| CCOC(=O)c1ccc(N2C(=O)c3n[nH]c(-c4ccco4)c3C2c2cccc(F)c2)cc1 (stereo unspecified) | inconclusive: 79.4 µM [inhibitor, single point] |
| CCNc1ccc(S(=O)(=O)N(C)C)cc1NCC(=O)Nc1ccccc1F | inactive |
| O=C(O)c1ccc2c3n(nc2c1)-c1ccc(Cl)cc1CO3 | active: 15.8 µM |
| O=C(Nc1ccc(Cl)cc1)[C@@H]1[C@@H]2C(=O)N(c3ccc4ccccc4c3)C(=O)[C@@H]2[C@H]2C=CC=NN21 | inconclusive: 39.8 µM [inhibitor, single point] |
| COc1ccc(CCNc2nc(-c3sc(N)nc3C)cs2)cc1OC | inconclusive: 10 µM [inhibitor, full curve, poor fit] |
| O=C(CCc1nnc(CCCCc2ccccc2)o1)NCc1cccc(F)c1 | inconclusive: 100 µM [inhibitor, partial curve, poor fit] |
| COC(=O)CCC(=O)OC1(C)C(=O)C2=CN(CC3CC3)C(c3ccc(OC)cc3)=CC2=C(Br)C1=O (stereo unspecified) | inconclusive: 22.4 µM [inhibitor, single point] |
| COCCN(C(=O)COC(=O)c1c(NC(C)=O)sc(C)c1C)c1c(N)n(Cc2ccccc2)c(=O)[nH]c1=O | inconclusive: 79.4 µM [inhibitor, partial curve] |
| O=C(Nn1nnnc1Nc1ccccc1)C12CC3CC(CC(C3)C1)C2 | inactive |
| COc1ccccc1C(=O)N1CCC(c2c[nH]c3ccccc23)(c2c[nH]c3ccccc23)CC1 | inactive |
| CCN1C(=O)[C@H]2[C@@H](c3ccc(-c4ccc(Cl)c(Cl)c4)cc3)N[C@@](CC(C)C)(C(=O)OC)[C@H]2C1=O | inactive |
| CCOC(=O)c1ccc(NC(=O)CSc2nc3cccnc3n2C)cc1 | inconclusive: 39.8 µM [inhibitor, single point] |
| Oc1ccc(/C=N/Nc2nc(-c3cccnc3)nc3ccccc23)c(O)c1 | inconclusive: 50.1 µM [inhibitor, partial curve] |
| COc1ccc(NC(=O)CSc2nc(O)cc(=O)n2-c2ccccc2OC)cc1 | inconclusive: 50.1 µM [inhibitor, full curve] |
| O=C(CN1C(=O)COc2ccc(S(=O)(=O)N3CCCCCC3)cc21)N1CCN(c2cccc(Cl)c2)CC1 | inconclusive: 89.1 µM [inhibitor, single point] |
| CC1CCCCC12NC(=O)N(Cc1cc(=O)n3ccsc3n1)C2=O (stereo unspecified) | active: 79.4 µM |
| O=C(COC(=O)CNC(=O)c1ccccc1F)Nc1ccc2c(c1)OCCO2 | inconclusive: 89.1 µM [inhibitor, single point] |
